Measured values reported in US20090022803A1, “Oral Formulations For Delivery of Catecholic Butanes Including Ndga Compounds” (priority 2005, published 2009).
Where two headings read alike, the source gives them in different places. Further values from the same series stand in other lists.

Format: physicochemical
Experimental: A 10 mL solution of M4N at a concentration of about 10 mg/mL in 40% BP-β-CD was made as follows. About 10 mL of the 40% HP-β-CD solution were added to a glass beaker containing a stir bar. The beaker was placed on a magnetic plate and the stir bar was set to stir at medium speed. About […] of M4N were slowly added to the 40% HP-β-CD in the center of the beaker with the aid of a spatula. The M4N/40% HP-β-CD mixture was stirred for 2 hr or until all M4N was uniformly suspended without any clumps being present. The M4N/40% HP-β-CD mixture was optionally heated at 80° C. for about 30 min. (or longer if a larger volume of solution was desired, for example, 1 hr at 80° C. for 100 mL of the M4N/HP-β-CD mixture), or longer as needed to ensure complete dissolution of M4N. […] The final M4N/40% HP-β-CD solution was stored at room temperature and was kept protected from light. This process may be scaled up or down to obtain the requisite volume or concentration of M4N. Formulations containing M4N in other cyclodextrin solutions may be similarly made, such as, for example, by substituting HP-β-CD in the process described above with other cyclodextrins. […]
A 10 mL solution of M4N at a concentration of about 10 mg/mL in 50% HP-β-CD/0.5% HPMC was made as follows. About 10 mL of the 50% HP-β-CD/0.5% HPMC solution were added to a glass beaker containing a stir bar. The beaker was placed on a magnetic plate and the stir bar was set to stir at medium speed. About 100 mg of M4N were slowly added to the 50% HP-β-CD/0.5% HPMC in the center of the beaker with the aid of a spatula. The M4N/50% HP-β-CD/0.5% HPMC mixture was stirred for 24 hr or until all M4N was uniformly suspended without any clumps being present. The M4N/50% HP-β-CD/0.5% HPMC mixture was heated at about 90° C. for about 30 min. (or longer if a larger volume of solution was desired, for example, 1 hr at 90° C. for 500 mL of the M4N/50% HP-β-CD/0.5% HPMC mixture), or longer as needed to ensure complete dissolution of M4N. […] The final M4N/50% HP-β-CD/0.5% HPMC solution was stored at room temperature and was kept protected from light.
A 10 mL solution of M4N at a concentration of about 20 mg/mL in 5% EC (w/v) (the “EC formulation”) was made as follows. About 10 mL of 5% EC formulation, made as described above, were added to a glass beaker containing a stir bar. The beaker was placed on a magnetic plate and the stir bar was set to stir at medium speed, and covered with a round Teflon® cover. About 200 mg of M4N were slowly added to the 5% EC formulation in the center of the beaker with the aid of a spatula to prevent M4N from sticking to the beaker wall. The M4N/EC mixture was stirred for 2 hr or until all M4N had dissolved or was uniformly suspended without any clumps being present. The M4N/EC mixture was heated at about 60° C. for about 30 min. (or longer if a larger volume of solution was desired, for example, 1 hr at 60° C. for 500 mL of the M4N/EC mixture), or longer as needed to ensure complete dissolution of M4N. […] The final M4N/EC solution was stored at room temperature and was kept protected from light.
A 10 mL solution of M4N at a concentration of about 50 mg/mL in sesame oil was made as follows. About 10 mL of sesame oil were added to a glass beaker containing a stir bar. The beaker was placed on a magnetic plate and the stir bar was set to stir at medium speed. About 500 mg of M4N were slowly added to the sesame oil in the center of the beaker with the aid of a spatula to prevent M4N from sticking to the beaker wall. The M4N/sesame oil mixture was stirred for about 2 hr or until all M4N had dissolved or was uniformly suspended without any clump being present. The M4N/sesame oil mixture was heated at about 60° C. for about 30 min. (or longer if a larger volume of solution was desired, for example, 1 hr at 60° C. for 500 mL of the M4N/sesame oil mixture), or longer as need to ensure complete dissolution of M4N. […]
Throughout, for Dissolution After Cool Down: key: N represents 'No'; Y represents 'Yes.'.

For `COc1ccc(C[C@@H](C)[C@@H](C)Cc2ccc(OC)c(OC)c2)cc1OC` [Formulation M4N, meso-1,4-bis(3,4-dimethoxyphenyl)-2,3-dimethylbutane], the “concentration up to which M4N was soluble” value was ≤ 60000 µg/mL, the “solubility at room temperature” value was “soluble” and the solubility upon cooling was “insoluble”. For the same compound, the “Dissolution After Rotation” value (0.3% (v/v) Piperin, 49.8% (v/v) PEG 400, 49.8% (v/v) Tween ® 20, M4N 60 mg/mL) was “N”, the “Dissolution After Cool Down” value (0.3% (v/v) Piperin, 49.8% (v/v) PEG 400, 49.8% (v/v) Tween ® 20, M4N 60 mg/mL, after heating at 55° C.) was “Suspension” and the “Dissolution After Heating” value (0.3% (v/v) Piperin, 49.8% (v/v) PEG 400, 49.8% (v/v) Tween ® 20, M4N 60 mg/mL, heating at 55° C.) was “Y at 55 °C”. For the same compound, the “Dissolution After Rotation” value (0.3% (w/v) Naringenin, 49.8%(v/v) PEG 400 49.8% (v/v) Tween ® 20, M4N 60 mg/mL) was “N”, the “Dissolution After Cool Down” value (0.3% (w/v) Naringenin, 49.8%(v/v) PEG 400 49.8% (v/v) Tween ® 20, M4N 60 mg/mL, after heating at 50° C.) was “Creamy” and the “Dissolution After Heating” value (0.3% (w/v) Naringenin, 49.8%(v/v) PEG 400 49.8% (v/v) Tween ® 20, M4N 60 mg/mL, heating at 50° C.) was “Y at 50 °C”. The “Dissolution After Rotation” value (0.4% (v/v) Cinnamadehyde, 49.8%(v/v) PEG 400, 49.8% (v/v) Tween ® 20, M4N 60 mg/mL) was “N”, the “Dissolution After Cool Down” value (0.4% (v/v) Cinnamadehyde, 49.8%(v/v) PEG 400, 49.8% (v/v) Tween ® 20, M4N 60 mg/mL, after heating at 60° C.) was “Y” and the “Dissolution After Heating” value (0.4% (v/v) Cinnamadehyde, 49.8%(v/v) PEG 400, 49.8% (v/v) Tween ® 20, M4N 60 mg/mL, heating at 60° C.) was “Y at 60 °C”. The “Dissolution After Rotation” value (0.4% (v/v) Cinnamaldehyde, 4.6% (v/v) Peppermint Oil, 47.5% (v/v) PEG 400, 47.5% (v/v) Tween ® 20, M4N 60 mg/mL) was “N”, the “Dissolution After Cool Down” value (0.4% (v/v) Cinnamaldehyde, 4.6% (v/v) Peppermint Oil, 47.5% (v/v) PEG 400, 47.5% (v/v) Tween ® 20, M4N 60 mg/mL, after heating at 60° C.) was “Y” and the “Dissolution After Heating” value (0.4% (v/v) Cinnamaldehyde, 4.6% (v/v) Peppermint Oil, 47.5% (v/v) PEG 400, 47.5% (v/v) Tween ® 20, M4N 60 mg/mL, heating at 60° C.) was “Y at 60 °C”. The “Dissolution After Rotation” value (0.4% (v/v) Eugenol, 49.8% (v/v) Tween ® 20, 49.8% (v/v) PEG 400, M4N 60 mg/mL) was “N”, the “Dissolution After Cool Down” value (0.4% (v/v) Eugenol, 49.8% (v/v) Tween ® 20, 49.8% (v/v) PEG 400, M4N 60 mg/mL, after heating at 50° C.) was “Y” and the “Dissolution After Heating” value (0.4% (v/v) Eugenol, 49.8% (v/v) Tween ® 20, 49.8% (v/v) PEG 400, M4N 60 mg/mL, heating at 50° C.) was “Y at 50 °C”. For the same compound, the “Dissolution After Rotation” value (0.4% (v/v) Naringin, 49.8% (v/v) PEG 400, 49.8% (v/v) Tween ® 20, M4N 60 mg/mL) was “N”, the “Dissolution After Cool Down” value (0.4% (v/v) Naringin, 49.8% (v/v) PEG 400, 49.8% (v/v) Tween ® 20, M4N 60 mg/mL, after heating at 50° C.) was “Suspension” and the “Dissolution After Heating” value (0.4% (v/v) Naringin, 49.8% (v/v) PEG 400, 49.8% (v/v) Tween ® 20, M4N 60 mg/mL, heating at 50° C.) was “Y at 50 °C”. For the same compound, the “Dissolution After Rotation” value (0.4% (v/v) Naringin, 49.8% (v/v) PEG 400, 49.8% (v/v) Tween ® 20, M4N 120 mg/mL) was “N”, the “Dissolution After Cool Down” value (0.4% (v/v) Naringin, 49.8% (v/v) PEG 400, 49.8% (v/v) Tween ® 20, M4N 120 mg/mL, after heating at 50° C.) was “Suspension” and the “Dissolution After Heating” value (0.4% (v/v) Naringin, 49.8% (v/v) PEG 400, 49.8% (v/v) Tween ® 20, M4N 120 mg/mL, heating at 50° C.) was “Y at 50 °C”. The “Dissolution After Rotation” value (0.4% (v/v) Naringin, 49.8% (v/v) PEG 400, 49.8% (v/v) Tween ® 20, M4N 200 mg/mL) was “N”, the “Dissolution After Cool Down” value (0.4% (v/v) Naringin, 49.8% (v/v) PEG 400, 49.8% (v/v) Tween ® 20, M4N 200 mg/mL, after heating at 50° C.) was “Suspension” and the “Dissolution After Heating” value (0.4% (v/v) Naringin, 49.8% (v/v) PEG 400, 49.8% (v/v) Tween ® 20, M4N 200 mg/mL, heating at 50° C.) was “Y at 50 °C”. For the same compound, the “Dissolution After Rotation” value (0.4% (v/v) Naringin, 49.8% (v/v) PEG 400, 49.8% (v/v) Tween ® 20, M4N 300 mg/mL) was “N”, the “Dissolution After Cool Down” value (0.4% (v/v) Naringin, 49.8% (v/v) PEG 400, 49.8% (v/v) Tween ® 20, M4N 300 mg/mL, after heating at 50° C.) was “Suspension” and the “Dissolution After Heating” value (0.4% (v/v) Naringin, 49.8% (v/v) PEG 400, 49.8% (v/v) Tween ® 20, M4N 300 mg/mL, heating at 50° C.) was “Y at 50 °C”. For the same compound, the “Dissolution After Rotation” value (3% (w/v)Glycerol Monostearate, 48.5% (v/v) PEG 400, 48.5% (v/v) Tween ® 20, M4N 60 mg/mL) was “N”, the “Dissolution After Cool Down” value (3% (w/v)Glycerol Monostearate, 48.5% (v/v) PEG 400, 48.5% (v/v) Tween ® 20, M4N 60 mg/mL, after heating at 80° C.) was “Y” and the “Dissolution After Heating” value (3% (w/v)Glycerol Monostearate, 48.5% (v/v) PEG 400, 48.5% (v/v) Tween ® 20, M4N 60 mg/mL, heating at 80° C.) was “Y at 80 °C”. For the same compound, the “Dissolution After Rotation” value (5% (v/v) Peppermint Oil, 47.5% (v/v) Tween ® 20, 47.5% (v/v) PEG 400, M4N 60 mg/mL) was “N”, the “Dissolution After Cool Down” value (5% (v/v) Peppermint Oil, 47.5% (v/v) Tween ® 20, 47.5% (v/v) PEG 400, M4N 60 mg/mL, after heating at 80° C.) was “Y” and the “Dissolution After Heating” value (5% (v/v) Peppermint Oil, 47.5% (v/v) Tween ® 20, 47.5% (v/v) PEG 400, M4N 60 mg/mL, heating at 80° C.) was “Y at 80 °C”. The “Dissolution After Rotation” value (10% TPGS (w/v), 50% PEG 400 (v/v), M4N 50 mg/ml) was “suspension”, the “Dissolution After Rotation” value (25% (v/v) PEG 400, 25% (v/v) Tween ® 20, 50% (v/v) Glycerol Monooleate, M4N 60 mg/mL) was “N” and the “Dissolution After Heating” value (25% (v/v) PEG 400, 25% (v/v) Tween ® 20, 50% (v/v) Glycerol Monooleate, M4N 60 mg/mL, heating at 50° C.) was “Y at 50 °C”. The “Dissolution After Rotation” value (25%(w/v) Lecithin, 37.5% (v/v) PEG 400, 37.5% (v/v) Tween ® 20, M4N 60 mg/mL) was “N”, the “Dissolution After Cool Down” value (25%(w/v) Lecithin, 37.5% (v/v) PEG 400, 37.5% (v/v) Tween ® 20, M4N 60 mg/mL, after heating at 50° C.) was “Y” and the “Dissolution After Heating” value (25%(w/v) Lecithin, 37.5% (v/v) PEG 400, 37.5% (v/v) Tween ® 20, M4N 60 mg/mL, heating at 50° C.) was “Y at 50 °C”. The “Dissolution After Rotation” value (30% (v/v) PEG 400, 30% (v/v) Tween ® 20, 40% (v/v) Glycerol Monooleate, M4N 60 mg/mL) was “N”, the “Dissolution After Heating” value (30% (v/v) PEG 400, 30% (v/v) Tween ® 20, 40% (v/v) Glycerol Monooleate, M4N 60 mg/mL, heating at 50° C.) was “Y at 50 °C” and the “Dissolution After Heating” value (40% Propylene Glycol (w/v), 10% Ethanol (v/v), M4N 10 mg/mL) was “N”.
